Reference: US20100256333A1 (UNIVERSITY OF MANITOBA, priority 2009, published 2010)
Some peptides are written in HELM: one residue between dots, names in brackets for other building blocks, links after the first $.

Assay: general procedure: solution-phase peptide synthesis; TBTU, DIEA (PyBOP for hindered coupling)

PEPTIDE1{[ac].L.[dF].[5'(R)-(MOM)GlcTSPro].V.[NMe2]}$$$$V2.0
step yield (coupling step, on tripeptide 2-9): 92%

PEPTIDE1{[ac].L.[dF].[5'(R)-GlcTSPro].V.[NMe2]}$$$$V2.0
step yield (late stage modification step, on 2-11): 90%

PEPTIDE1{[ac].L.[dF].[5'(S)-(MOM)GlcTSPro].V.[NMe2]}$$$$V2.0
difficulty met (whole synthesis, scale of the general procedure 0.03 mmol): In this case, a low yield for tripeptide 2-10 was obtained and the dipeptide 2-8 was recovered in 45% yield.
